Test results taken from patent US20170291959A1.
Results are given in words; binding and its absence hold for the method and conditions named. Some binding calls cover weakened binding; strength is not graded here.

Chains of the proteins cited; added tags and fusions are not shown. Residues count along the entry.
UniProt P28907, residues 43-300: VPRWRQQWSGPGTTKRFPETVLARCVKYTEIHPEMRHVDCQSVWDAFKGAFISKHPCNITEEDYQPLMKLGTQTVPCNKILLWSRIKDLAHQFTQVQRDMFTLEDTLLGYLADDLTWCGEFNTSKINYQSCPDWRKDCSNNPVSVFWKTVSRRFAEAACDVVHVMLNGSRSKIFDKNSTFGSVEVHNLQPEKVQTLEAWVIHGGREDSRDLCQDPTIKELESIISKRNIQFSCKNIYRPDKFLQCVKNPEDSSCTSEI

Target: human CD38 (human) (UniProt P28907)
Test: selection of antibodies, method not described

| Binder | binding |
| --- | --- |
| C38A1 (antibody, V domains shown) VH: QVQLVESGAEVKKPGASVKVSCRASGYTFTNYHLHWVRQAPGQGLEWVGTINPRGGSTTYAQKFQGRVAMTSDTSTSTVYMEVNRLRSDDTAVYFCARGSDNALADFYNYYDMDVWGQGTTVTVSS VL: QAVVTQPPSVSAAPGQKVTISCSGSSSNIGNNYVSWYQQLPGTAPKLLIYDNNERPSGIPGRFSGSKSGTSATLGITGLQTGDEADYYCGTWDSSLSAGVFGGGTKLTVL | binds |
| C38D10 (antibody, V domains shown) VH: QVQLVESGGGLVQPGGSLRLSCAASGFTVSGNYMNWVRQAPGKGLEWVSVIYSGGDTYYADSVKGRFTVSRDNSKNTLYLQMNSLTAEDTAVYYCAREYSGYYYGMDVWGQGTTVTVSS VL: QSVLTQPHSASGTPGQRVTISCSGSSSNIGGNTVNWYQQLPGTAPRLLIYTNNKRPSGVPDRFSGSKSGTSASLAISGLQSEDEADYYCAAWDNSLKGYVFGTGTKLTVL | binds |
| C38D5 (antibody, V domains shown) VH: QVQLQQWGAGLLKPSETLSLTCAVYGGSFSGYYWSWIRQPPGKGLEWIGEINHSGSTNYNPSLKSRVTISVDTSKNQFSLKLSSVTAADTAVYYCAREGLRHSFDIWGQGTMVTVSS VL: QSVVTQPPSVSAAPGQKVTISCSGSNSNIGSNYVSWYQHLPGTAPKLLIYDNNNRPSGIPDRFSGSKSGTSATLGITGLQTGDEANYYCATWDTSLSGWVFGGGTKLTVL | binds |
| C38C4 (antibody, V domains shown) VH: EVQLVQSGAEVKKPGASVKVSCKVSGYTLTELSMHWVRQAPGKGLEWMGGFDPEDGETIYAQKFQGRVTMTEDTSTDTAYMELSSLRSEDTAVYYCATENSNYVYFQHWGQGTLVTVSS VL: QSALTQPPSASGAPGQRVTISCSGSSANIGSNTVDWYQKLPGTAPRLLIYNDDHRPSGVPDRFSASTSGNTASLTIAGAQAEDEGDYYCNSRDNNDQHYVFGSGTKVTVL | binds |
| C38B7 (antibody, V domains shown) VH: QVQLVQSGAEVKKPGSSVKVSCKSSGGTLRNYVINWVRQAPGQGLEWMGRITPFLGESESAQKFQNRVTITADTSINTAYMELSSLRSEDTAVYYCARETVGATAADWYFDLWGRGTLVTVSS VL: QSVLTQPASVSGSPGQSITISCTGTSSDVGAYNYVSWYQQLPGTAPKVLSYSNDHRPSGVPDRFSGSKSGTSASLAISGLQSEDEADYYCAAWDDSLNNYVFGTGTKVTVL | binds |

Continued, values first:

| binding | Binder |
| --- | --- |
| binds | C38D2 (antibody, V domains shown) VH: QVQLVQSGSEVKKPGASLHLSCKASGYTFINHYMHWVRQAPGQGLEWMGVINPRGGSTTYAQKFQGRVAMTTDTSTYTVYMEVNSLRSDDTAVYFCARGSDNALADYYNSYDMDVWGQGTTVTVSS VL: AIRMTQSPSSLSASVGDRVTITCRASQGISSALAWYQQKPGKAPKLLIYDASSLESGVPSRFSGSGSGTDFTLTISSLQPEDFATYYCQQANSFPLTFGQGTKLEIK |
| binds | C38C9 (antibody, V domains shown) VH: EVQLVESGGGVVQPGRSLRLSCAASGFTFSSYDMHWVRQATGKGLEWVSAIGTAGDTYYPGSVKGRFTISRDNSKNTLYLQMNSLRAEDTAVYYCARDSWFGELSLDYWGQGTLVTVSS VL: QAVVTQAPSVSAAPGQKVTISCSGSSSNIGNNYVSWYQQLPGTAPKLLIYDNNKRPSGIPDRFSGSKSGTSATLGITGLQTGDEADYYCGTWDSSLSAAVFGGGTKLTVL |
| binds | C38D11 (antibody, V domains shown) VH: QVQLQQWGAGLLKPSETLSLTCAVYGGSFNGYYWSWIRQPPGKGLEWIGEINHSGSTNYNPSLKSRPTISVDTSKNQFSLNLSSVTAADTAVYYCARAGTVYYYYGMDVWGQGTTVTVSS VL: QSVVTQPPSVSAAPGQKVTISCSGSNSNIANNYVSWYQQLPGTAPKLLIYDNNKRPSGIPDRFSGSKSGTSATLGITGLQTGDEADYYCETWDSSLSAVVFGGGTKLTVL |
| binds | C38F8 (antibody, V domains shown) VH: QVQLVQSGAEVKKPGESLEISCKDFGDSFTNYWIGWVRQMPGKGLEWMGIIYPGDSDTRYSPSFQGQVTISADKSINTAYLQWSSLKASDTAMYYCATFSRELMGFGAWGQGTLVTVSS VL: QSVLTQPPSVSATPGQRVTISCSGSSSNIGNNYVSWYQQLPGTAPKLLIYDNNKRPSGIPDRFSGSKSGTSAILDITGLQTGDEADYYCGTWDSSLSAEVFGTGTKLTVL |
| binds | C38B1 (antibody, V domains shown) VH: EVQLLESGAEVKKPGASVKVSCKASGYTFTSYGISWVRQAPGQGLEWMGWISAYNGNTNYAQKLQGRVTMTTDTSTSTAYMELRSLRSDDTAVYYCARTDLLYCSSTSCYHNGVGMDVWGQGTTVTVSS VL: QAVLTQPPSASGSPGQSVTISCTGTSSDVGGYNYVSWYQQHPDKAPKLIIYEVTKRPSGVPGRFSGSKSGNTASLTVSGLQAEDEADYYCGSYAGNNNYVFGTGTKVTVL |
| binds | C38G8 (antibody, V domains shown) VH: EVQLLESGGGLVQPGRSLRLSCAASGFTFSSYGMHWVRQAPGKGLEWVSYISSSSSTIYYADSVKGRFTISRDNAKNSLYLQMNSLRDEDTAVYYCARDEDYYYGMDVWGQGTTVTVSS VL: DIVMTQTPSSLSASVGDRVTITCQASQDINGYLNWYQQKPGKAPKLLIYGASNLEKGVPSRFSGSGSGTDFTFTVSSLQSEDIATYYCQQYDDLPLTFGAGTKVEIK |
| binds | C38D1 (antibody, V domains shown) VH: EVQLVQSGGGVVQPGRSLRVSCAASGFTFSSYGMHWVRQTPGKGLEWVAGIWYDENDKYYADSVKGRFTISRDNSKNTLHLQMNSLRAEDTAVYYCARQFRDYYFDVWGRGTLVTVSS VL: QSALTQPPSVSAAPGQKVTISCSGSSSNIGNNYVSWYQQLPGTAPKLLIYDNNKRPSGIPDRFSGSKSGTSATLGITGLQTGDEADYYCGTWDSSLGGVFGTGTKLTVL |
